In PMC12442633:
No constants are given. Whether binding was seen depends on the method and setting. For part of these data: Binding seen in cells or lysates may run through a third protein. Some binding calls cover weakened binding; strength is not graded here. For part of these data: Tags and fused reporters may be left off the sequences shown.

Experiments:
GST-USP8 (human) = molecular target: T1, GST-USP8 (human) (UniProt P40818); experiment: pull-down; USP8 and MDA5 purified from BL21 E. coli; direct interaction; which protein was held is not stated; both purified
T1 sequence: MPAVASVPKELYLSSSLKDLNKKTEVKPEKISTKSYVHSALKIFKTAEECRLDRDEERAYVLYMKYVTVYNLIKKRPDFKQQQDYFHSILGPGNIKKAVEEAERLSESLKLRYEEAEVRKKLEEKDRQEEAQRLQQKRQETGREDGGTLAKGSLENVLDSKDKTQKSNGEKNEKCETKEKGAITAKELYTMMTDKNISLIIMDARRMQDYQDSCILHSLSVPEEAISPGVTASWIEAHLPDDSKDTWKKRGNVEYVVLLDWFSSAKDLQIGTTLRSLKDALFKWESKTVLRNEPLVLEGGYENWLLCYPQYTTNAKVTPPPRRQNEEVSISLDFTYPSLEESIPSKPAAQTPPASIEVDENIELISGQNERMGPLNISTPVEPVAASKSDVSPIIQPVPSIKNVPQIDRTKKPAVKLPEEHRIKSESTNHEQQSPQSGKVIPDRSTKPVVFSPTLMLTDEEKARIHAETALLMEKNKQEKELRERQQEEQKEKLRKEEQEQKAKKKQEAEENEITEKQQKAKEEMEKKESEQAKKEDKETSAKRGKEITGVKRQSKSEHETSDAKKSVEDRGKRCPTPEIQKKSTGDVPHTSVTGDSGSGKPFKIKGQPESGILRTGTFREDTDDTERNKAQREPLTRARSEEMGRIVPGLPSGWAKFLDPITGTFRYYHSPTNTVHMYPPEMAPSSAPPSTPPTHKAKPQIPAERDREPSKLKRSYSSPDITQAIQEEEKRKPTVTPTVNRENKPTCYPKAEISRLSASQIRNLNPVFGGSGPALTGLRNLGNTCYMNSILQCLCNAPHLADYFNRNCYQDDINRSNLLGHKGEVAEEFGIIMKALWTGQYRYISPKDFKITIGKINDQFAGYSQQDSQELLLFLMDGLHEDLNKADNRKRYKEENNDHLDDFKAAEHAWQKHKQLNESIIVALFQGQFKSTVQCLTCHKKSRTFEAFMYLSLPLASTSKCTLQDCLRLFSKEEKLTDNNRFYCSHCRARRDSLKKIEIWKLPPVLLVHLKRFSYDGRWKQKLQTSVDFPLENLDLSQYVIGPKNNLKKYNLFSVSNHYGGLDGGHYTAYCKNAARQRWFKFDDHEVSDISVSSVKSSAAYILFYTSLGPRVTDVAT

[1] = molecular target: T2, MDA5 stably overexpressed in THP1 cells (UniProt Q9BYX4); experiment: pull-down; THP1 cells stably overexpressing MDA5, infected with EMCV as indicated (Poly(I:C) HMW in Figure S1F); endogenous USP8 detected
T2 sequence: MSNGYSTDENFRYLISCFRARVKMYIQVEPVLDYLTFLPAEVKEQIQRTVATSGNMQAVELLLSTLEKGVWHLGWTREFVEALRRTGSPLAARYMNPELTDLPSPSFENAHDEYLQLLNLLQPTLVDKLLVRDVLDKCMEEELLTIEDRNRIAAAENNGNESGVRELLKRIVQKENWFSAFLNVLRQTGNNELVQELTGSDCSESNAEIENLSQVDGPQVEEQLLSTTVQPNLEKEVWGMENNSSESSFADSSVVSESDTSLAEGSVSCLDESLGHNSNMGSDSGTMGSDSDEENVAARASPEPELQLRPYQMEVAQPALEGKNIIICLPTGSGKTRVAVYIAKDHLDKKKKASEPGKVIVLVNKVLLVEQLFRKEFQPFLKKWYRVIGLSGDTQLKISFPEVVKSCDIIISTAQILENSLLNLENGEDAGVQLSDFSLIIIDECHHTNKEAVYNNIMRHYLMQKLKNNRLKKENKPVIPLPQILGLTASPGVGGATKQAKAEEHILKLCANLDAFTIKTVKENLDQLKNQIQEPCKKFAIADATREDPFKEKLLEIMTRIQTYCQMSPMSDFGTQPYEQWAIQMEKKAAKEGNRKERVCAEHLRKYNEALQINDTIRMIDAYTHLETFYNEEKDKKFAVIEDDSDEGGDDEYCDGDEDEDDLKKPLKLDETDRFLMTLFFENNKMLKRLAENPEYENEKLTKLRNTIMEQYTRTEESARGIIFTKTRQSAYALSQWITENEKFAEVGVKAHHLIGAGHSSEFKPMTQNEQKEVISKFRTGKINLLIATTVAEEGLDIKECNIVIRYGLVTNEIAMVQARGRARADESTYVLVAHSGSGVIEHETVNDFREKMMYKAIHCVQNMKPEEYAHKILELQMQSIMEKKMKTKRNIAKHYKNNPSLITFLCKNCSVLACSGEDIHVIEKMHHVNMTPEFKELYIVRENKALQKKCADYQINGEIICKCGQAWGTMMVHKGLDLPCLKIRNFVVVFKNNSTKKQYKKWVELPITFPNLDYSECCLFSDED

SFB-MDA5 = molecular target: T3, SFB-MDA5 (UniProt Q9BYX4); experiment: pull-down; HEK293T cells co-transfected; NP-40 lysis buffer (20 mM Tris-HCl pH 8.0, 150 mM NaCl, 1% NP-40, 10% glycerol, 2 mM EDTA); S-protein agarose at 4 °C overnight; immunoblot
T3 sequence: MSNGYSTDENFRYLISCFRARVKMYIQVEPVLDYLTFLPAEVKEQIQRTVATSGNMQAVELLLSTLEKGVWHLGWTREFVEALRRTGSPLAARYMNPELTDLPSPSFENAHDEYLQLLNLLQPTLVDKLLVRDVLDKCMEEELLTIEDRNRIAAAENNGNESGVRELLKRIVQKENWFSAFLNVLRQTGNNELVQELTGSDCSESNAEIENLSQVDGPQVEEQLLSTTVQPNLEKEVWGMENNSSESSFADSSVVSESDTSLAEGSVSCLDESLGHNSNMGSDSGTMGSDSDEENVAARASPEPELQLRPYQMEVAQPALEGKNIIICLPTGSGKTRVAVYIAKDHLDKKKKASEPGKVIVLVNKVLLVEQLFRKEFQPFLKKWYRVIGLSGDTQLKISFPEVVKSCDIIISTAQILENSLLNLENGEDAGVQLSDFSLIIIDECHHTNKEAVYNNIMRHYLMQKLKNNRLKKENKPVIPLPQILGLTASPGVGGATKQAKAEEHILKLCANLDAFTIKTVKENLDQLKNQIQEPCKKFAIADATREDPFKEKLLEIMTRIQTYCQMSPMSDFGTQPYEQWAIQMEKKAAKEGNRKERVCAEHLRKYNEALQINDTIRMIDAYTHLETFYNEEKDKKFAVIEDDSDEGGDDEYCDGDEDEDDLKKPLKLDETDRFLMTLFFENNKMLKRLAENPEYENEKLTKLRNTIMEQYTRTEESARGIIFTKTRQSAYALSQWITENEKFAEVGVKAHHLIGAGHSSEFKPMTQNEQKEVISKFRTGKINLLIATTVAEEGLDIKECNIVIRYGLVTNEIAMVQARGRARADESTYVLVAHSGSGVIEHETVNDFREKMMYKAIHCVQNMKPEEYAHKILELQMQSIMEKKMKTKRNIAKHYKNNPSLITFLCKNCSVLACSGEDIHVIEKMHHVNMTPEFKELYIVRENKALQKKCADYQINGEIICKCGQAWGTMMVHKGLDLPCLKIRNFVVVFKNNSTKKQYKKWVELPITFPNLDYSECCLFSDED

B1: His-MDA5 (protein, UniProt Q9BYX4 1-1025)
chain: MSNGYSTDENFRYLISCFRARVKMYIQVEPVLDYLTFLPAEVKEQIQRTVATSGNMQAVELLLSTLEKGVWHLGWTREFVEALRRTGSPLAARYMNPELTDLPSPSFENAHDEYLQLLNLLQPTLVDKLLVRDVLDKCMEEELLTIEDRNRIAAAENNGNESGVRELLKRIVQKENWFSAFLNVLRQTGNNELVQELTGSDCSESNAEIENLSQVDGPQVEEQLLSTTVQPNLEKEVWGMENNSSESSFADSSVVSESDTSLAEGSVSCLDESLGHNSNMGSDSGTMGSDSDEENVAARASPEPELQLRPYQMEVAQPALEGKNIIICLPTGSGKTRVAVYIAKDHLDKKKKASEPGKVIVLVNKVLLVEQLFRKEFQPFLKKWYRVIGLSGDTQLKISFPEVVKSCDIIISTAQILENSLLNLENGEDAGVQLSDFSLIIIDECHHTNKEAVYNNIMRHYLMQKLKNNRLKKENKPVIPLPQILGLTASPGVGGATKQAKAEEHILKLCANLDAFTIKTVKENLDQLKNQIQEPCKKFAIADATREDPFKEKLLEIMTRIQTYCQMSPMSDFGTQPYEQWAIQMEKKAAKEGNRKERVCAEHLRKYNEALQINDTIRMIDAYTHLETFYNEEKDKKFAVIEDDSDEGGDDEYCDGDEDEDDLKKPLKLDETDRFLMTLFFENNKMLKRLAENPEYENEKLTKLRNTIMEQYTRTEESARGIIFTKTRQSAYALSQWITENEKFAEVGVKAHHLIGAGHSSEFKPMTQNEQKEVISKFRTGKINLLIATTVAEEGLDIKECNIVIRYGLVTNEIAMVQARGRARADESTYVLVAHSGSGVIEHETVNDFREKMMYKAIHCVQNMKPEEYAHKILELQMQSIMEKKMKTKRNIAKHYKNNPSLITFLCKNCSVLACSGEDIHVIEKMHHVNMTPEFKELYIVRENKALQKKCADYQINGEIICKCGQAWGTMMVHKGLDLPCLKIRNFVVVFKNNSTKKQYKKWVELPITFPNLDYSECCLFSDED
B1 was tested, and the binding (GST-USP8 (human)) was “binds”.

B2: endogenous USP8 (enzyme, UniProt P40818 1-1118)
chain: MPAVASVPKELYLSSSLKDLNKKTEVKPEKISTKSYVHSALKIFKTAEECRLDRDEERAYVLYMKYVTVYNLIKKRPDFKQQQDYFHSILGPGNIKKAVEEAERLSESLKLRYEEAEVRKKLEEKDRQEEAQRLQQKRQETGREDGGTLAKGSLENVLDSKDKTQKSNGEKNEKCETKEKGAITAKELYTMMTDKNISLIIMDARRMQDYQDSCILHSLSVPEEAISPGVTASWIEAHLPDDSKDTWKKRGNVEYVVLLDWFSSAKDLQIGTTLRSLKDALFKWESKTVLRNEPLVLEGGYENWLLCYPQYTTNAKVTPPPRRQNEEVSISLDFTYPSLEESIPSKPAAQTPPASIEVDENIELISGQNERMGPLNISTPVEPVAASKSDVSPIIQPVPSIKNVPQIDRTKKPAVKLPEEHRIKSESTNHEQQSPQSGKVIPDRSTKPVVFSPTLMLTDEEKARIHAETALLMEKNKQEKELRERQQEEQKEKLRKEEQEQKAKKKQEAEENEITEKQQKAKEEMEKKESEQAKKEDKETSAKRGKEITGVKRQSKSEHETSDAKKSVEDRGKRCPTPEIQKKSTGDVPHTSVTGDSGSGKPFKIKGQPESGILRTGTFREDTDDTERNKAQREPLTRARSEEMGRIVPGLPSGWAKFLDPITGTFRYYHSPTNTVHMYPPEMAPSSAPPSTPPTHKAKPQIPAERDREPSKLKRSYSSPDITQAIQEEEKRKPTVTPTVNRENKPTCYPKAEISRLSASQIRNLNPVFGGSGPALTGLRNLGNTCYMNSILQCLCNAPHLADYFNRNCYQDDINRSNLLGHKGEVAEEFGIIMKALWTGQYRYISPKDFKITIGKINDQFAGYSQQDSQELLLFLMDGLHEDLNKADNRKRYKEENNDHLDDFKAAEHAWQKHKQLNESIIVALFQGQFKSTVQCLTCHKKSRTFEAFMYLSLPLASTSKCTLQDCLRLFSKEEKLTDNNRFYCSHCRARRDSLKKIEIWKLPPVLLVHLKRFSYDGRWKQKLQTSVDFPLENLDLSQYVIGPKNNLKKYNLFSVSNHYGGLDGGHYTAYCKNAARQRWFKFDDHEVSDISVSSVKSSAAYILFYTSLGPRVTDVAT
For B2, the binding [1] was “binds”.

B3: Myc-USP8 (enzyme, UniProt P40818 1-1118)
chain: MPAVASVPKELYLSSSLKDLNKKTEVKPEKISTKSYVHSALKIFKTAEECRLDRDEERAYVLYMKYVTVYNLIKKRPDFKQQQDYFHSILGPGNIKKAVEEAERLSESLKLRYEEAEVRKKLEEKDRQEEAQRLQQKRQETGREDGGTLAKGSLENVLDSKDKTQKSNGEKNEKCETKEKGAITAKELYTMMTDKNISLIIMDARRMQDYQDSCILHSLSVPEEAISPGVTASWIEAHLPDDSKDTWKKRGNVEYVVLLDWFSSAKDLQIGTTLRSLKDALFKWESKTVLRNEPLVLEGGYENWLLCYPQYTTNAKVTPPPRRQNEEVSISLDFTYPSLEESIPSKPAAQTPPASIEVDENIELISGQNERMGPLNISTPVEPVAASKSDVSPIIQPVPSIKNVPQIDRTKKPAVKLPEEHRIKSESTNHEQQSPQSGKVIPDRSTKPVVFSPTLMLTDEEKARIHAETALLMEKNKQEKELRERQQEEQKEKLRKEEQEQKAKKKQEAEENEITEKQQKAKEEMEKKESEQAKKEDKETSAKRGKEITGVKRQSKSEHETSDAKKSVEDRGKRCPTPEIQKKSTGDVPHTSVTGDSGSGKPFKIKGQPESGILRTGTFREDTDDTERNKAQREPLTRARSEEMGRIVPGLPSGWAKFLDPITGTFRYYHSPTNTVHMYPPEMAPSSAPPSTPPTHKAKPQIPAERDREPSKLKRSYSSPDITQAIQEEEKRKPTVTPTVNRENKPTCYPKAEISRLSASQIRNLNPVFGGSGPALTGLRNLGNTCYMNSILQCLCNAPHLADYFNRNCYQDDINRSNLLGHKGEVAEEFGIIMKALWTGQYRYISPKDFKITIGKINDQFAGYSQQDSQELLLFLMDGLHEDLNKADNRKRYKEENNDHLDDFKAAEHAWQKHKQLNESIIVALFQGQFKSTVQCLTCHKKSRTFEAFMYLSLPLASTSKCTLQDCLRLFSKEEKLTDNNRFYCSHCRARRDSLKKIEIWKLPPVLLVHLKRFSYDGRWKQKLQTSVDFPLENLDLSQYVIGPKNNLKKYNLFSVSNHYGGLDGGHYTAYCKNAARQRWFKFDDHEVSDISVSSVKSSAAYILFYTSLGPRVTDVAT
For B3, the binding (SFB-MDA5) was “binds”.
